The results in this text go back to the supplement of paper PMC10849652.

Protein sequences, listed by entry. Tags and fused reporters are not part of them. Lines headed by an entry give the natural chain unless they say otherwise; changes in a name come on top.
UniProt Q9BSF8: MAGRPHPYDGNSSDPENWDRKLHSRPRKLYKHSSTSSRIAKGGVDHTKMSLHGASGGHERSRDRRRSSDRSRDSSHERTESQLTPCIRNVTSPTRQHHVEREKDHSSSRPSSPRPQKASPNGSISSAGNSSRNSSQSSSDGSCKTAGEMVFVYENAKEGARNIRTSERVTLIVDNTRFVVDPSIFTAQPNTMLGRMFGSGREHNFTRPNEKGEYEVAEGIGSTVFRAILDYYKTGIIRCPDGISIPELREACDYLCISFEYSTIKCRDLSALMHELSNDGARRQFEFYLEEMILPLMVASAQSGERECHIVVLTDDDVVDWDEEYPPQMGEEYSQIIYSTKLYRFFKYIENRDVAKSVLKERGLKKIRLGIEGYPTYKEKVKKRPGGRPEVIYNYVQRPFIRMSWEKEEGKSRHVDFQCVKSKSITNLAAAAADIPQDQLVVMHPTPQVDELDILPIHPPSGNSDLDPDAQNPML
UniProt Q96DR5: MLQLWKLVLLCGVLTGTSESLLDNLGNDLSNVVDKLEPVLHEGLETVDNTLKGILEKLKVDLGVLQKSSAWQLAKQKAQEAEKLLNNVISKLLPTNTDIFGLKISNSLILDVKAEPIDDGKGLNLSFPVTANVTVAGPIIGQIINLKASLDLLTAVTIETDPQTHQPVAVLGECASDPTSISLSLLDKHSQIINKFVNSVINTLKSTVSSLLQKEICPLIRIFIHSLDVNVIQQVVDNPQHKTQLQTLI
UniProt Q9UQB8: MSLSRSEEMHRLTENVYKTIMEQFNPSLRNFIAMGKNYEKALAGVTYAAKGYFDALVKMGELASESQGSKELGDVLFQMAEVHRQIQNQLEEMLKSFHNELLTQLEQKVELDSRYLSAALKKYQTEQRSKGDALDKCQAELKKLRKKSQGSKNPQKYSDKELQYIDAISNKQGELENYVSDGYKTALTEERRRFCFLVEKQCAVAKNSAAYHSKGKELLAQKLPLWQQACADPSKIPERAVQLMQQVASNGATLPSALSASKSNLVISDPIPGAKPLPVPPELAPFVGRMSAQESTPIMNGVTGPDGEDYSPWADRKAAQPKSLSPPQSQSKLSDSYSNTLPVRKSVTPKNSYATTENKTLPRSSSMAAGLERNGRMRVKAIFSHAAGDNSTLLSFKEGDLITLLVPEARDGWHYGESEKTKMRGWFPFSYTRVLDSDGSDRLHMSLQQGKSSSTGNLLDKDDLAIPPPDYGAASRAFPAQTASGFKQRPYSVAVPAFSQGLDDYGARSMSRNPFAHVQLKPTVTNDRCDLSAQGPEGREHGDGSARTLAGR
UniProt Q9BX70: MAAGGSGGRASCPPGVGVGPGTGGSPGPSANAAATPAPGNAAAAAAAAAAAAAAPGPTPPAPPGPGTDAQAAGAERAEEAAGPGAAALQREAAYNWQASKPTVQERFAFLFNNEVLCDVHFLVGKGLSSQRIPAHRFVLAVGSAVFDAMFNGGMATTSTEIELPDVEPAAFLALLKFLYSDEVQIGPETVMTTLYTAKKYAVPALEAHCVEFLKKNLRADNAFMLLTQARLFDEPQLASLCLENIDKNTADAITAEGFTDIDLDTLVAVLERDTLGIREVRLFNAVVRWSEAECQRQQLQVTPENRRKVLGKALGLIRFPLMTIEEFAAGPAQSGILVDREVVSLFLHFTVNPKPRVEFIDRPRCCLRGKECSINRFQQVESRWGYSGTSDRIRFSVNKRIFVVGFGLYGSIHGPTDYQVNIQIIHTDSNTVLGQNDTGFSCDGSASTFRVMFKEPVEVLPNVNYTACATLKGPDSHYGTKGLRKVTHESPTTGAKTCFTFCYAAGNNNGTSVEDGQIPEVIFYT
UniProt Q8IWZ6: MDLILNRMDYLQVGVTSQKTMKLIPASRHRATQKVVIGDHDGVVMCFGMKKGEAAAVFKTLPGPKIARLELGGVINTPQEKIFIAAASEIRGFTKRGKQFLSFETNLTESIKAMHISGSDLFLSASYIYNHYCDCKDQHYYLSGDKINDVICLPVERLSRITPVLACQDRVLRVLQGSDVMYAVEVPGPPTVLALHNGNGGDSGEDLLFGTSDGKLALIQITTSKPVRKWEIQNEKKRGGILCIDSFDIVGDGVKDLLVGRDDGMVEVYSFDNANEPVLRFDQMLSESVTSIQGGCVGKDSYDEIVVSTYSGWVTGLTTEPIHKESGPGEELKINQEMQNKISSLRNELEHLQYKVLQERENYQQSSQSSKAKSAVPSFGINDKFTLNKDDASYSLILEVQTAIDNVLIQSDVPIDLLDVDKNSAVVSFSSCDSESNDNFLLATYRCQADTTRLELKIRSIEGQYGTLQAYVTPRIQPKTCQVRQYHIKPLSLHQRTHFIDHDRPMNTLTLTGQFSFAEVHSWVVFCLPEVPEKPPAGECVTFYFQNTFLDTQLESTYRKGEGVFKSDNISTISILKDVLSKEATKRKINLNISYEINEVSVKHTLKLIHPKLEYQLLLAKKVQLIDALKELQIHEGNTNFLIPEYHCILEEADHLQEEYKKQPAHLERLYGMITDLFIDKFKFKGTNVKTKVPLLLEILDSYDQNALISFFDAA
UniProt Q8WY36: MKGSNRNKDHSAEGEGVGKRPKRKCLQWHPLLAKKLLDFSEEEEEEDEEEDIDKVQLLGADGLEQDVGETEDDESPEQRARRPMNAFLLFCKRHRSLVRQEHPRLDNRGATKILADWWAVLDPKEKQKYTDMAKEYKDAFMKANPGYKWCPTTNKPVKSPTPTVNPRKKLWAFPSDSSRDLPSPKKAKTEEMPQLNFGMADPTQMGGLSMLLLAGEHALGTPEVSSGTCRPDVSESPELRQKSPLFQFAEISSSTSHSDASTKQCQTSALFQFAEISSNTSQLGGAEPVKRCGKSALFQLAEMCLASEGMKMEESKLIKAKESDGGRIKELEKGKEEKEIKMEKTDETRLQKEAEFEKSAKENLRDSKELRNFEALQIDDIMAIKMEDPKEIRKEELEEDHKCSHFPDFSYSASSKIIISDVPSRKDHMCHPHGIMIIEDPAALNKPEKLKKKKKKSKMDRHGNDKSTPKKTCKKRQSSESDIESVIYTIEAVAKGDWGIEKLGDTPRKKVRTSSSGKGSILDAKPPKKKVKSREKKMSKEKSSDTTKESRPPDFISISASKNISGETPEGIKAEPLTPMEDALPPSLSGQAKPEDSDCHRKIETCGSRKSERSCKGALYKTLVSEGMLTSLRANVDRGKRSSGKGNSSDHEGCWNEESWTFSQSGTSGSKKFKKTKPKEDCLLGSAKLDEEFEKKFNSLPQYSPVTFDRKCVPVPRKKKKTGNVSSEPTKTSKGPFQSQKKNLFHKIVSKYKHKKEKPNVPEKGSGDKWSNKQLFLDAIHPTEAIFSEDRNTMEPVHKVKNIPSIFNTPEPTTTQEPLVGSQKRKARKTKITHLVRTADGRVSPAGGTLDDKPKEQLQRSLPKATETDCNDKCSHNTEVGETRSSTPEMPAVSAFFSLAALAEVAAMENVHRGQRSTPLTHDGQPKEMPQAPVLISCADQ
UniProt Q5H9F3: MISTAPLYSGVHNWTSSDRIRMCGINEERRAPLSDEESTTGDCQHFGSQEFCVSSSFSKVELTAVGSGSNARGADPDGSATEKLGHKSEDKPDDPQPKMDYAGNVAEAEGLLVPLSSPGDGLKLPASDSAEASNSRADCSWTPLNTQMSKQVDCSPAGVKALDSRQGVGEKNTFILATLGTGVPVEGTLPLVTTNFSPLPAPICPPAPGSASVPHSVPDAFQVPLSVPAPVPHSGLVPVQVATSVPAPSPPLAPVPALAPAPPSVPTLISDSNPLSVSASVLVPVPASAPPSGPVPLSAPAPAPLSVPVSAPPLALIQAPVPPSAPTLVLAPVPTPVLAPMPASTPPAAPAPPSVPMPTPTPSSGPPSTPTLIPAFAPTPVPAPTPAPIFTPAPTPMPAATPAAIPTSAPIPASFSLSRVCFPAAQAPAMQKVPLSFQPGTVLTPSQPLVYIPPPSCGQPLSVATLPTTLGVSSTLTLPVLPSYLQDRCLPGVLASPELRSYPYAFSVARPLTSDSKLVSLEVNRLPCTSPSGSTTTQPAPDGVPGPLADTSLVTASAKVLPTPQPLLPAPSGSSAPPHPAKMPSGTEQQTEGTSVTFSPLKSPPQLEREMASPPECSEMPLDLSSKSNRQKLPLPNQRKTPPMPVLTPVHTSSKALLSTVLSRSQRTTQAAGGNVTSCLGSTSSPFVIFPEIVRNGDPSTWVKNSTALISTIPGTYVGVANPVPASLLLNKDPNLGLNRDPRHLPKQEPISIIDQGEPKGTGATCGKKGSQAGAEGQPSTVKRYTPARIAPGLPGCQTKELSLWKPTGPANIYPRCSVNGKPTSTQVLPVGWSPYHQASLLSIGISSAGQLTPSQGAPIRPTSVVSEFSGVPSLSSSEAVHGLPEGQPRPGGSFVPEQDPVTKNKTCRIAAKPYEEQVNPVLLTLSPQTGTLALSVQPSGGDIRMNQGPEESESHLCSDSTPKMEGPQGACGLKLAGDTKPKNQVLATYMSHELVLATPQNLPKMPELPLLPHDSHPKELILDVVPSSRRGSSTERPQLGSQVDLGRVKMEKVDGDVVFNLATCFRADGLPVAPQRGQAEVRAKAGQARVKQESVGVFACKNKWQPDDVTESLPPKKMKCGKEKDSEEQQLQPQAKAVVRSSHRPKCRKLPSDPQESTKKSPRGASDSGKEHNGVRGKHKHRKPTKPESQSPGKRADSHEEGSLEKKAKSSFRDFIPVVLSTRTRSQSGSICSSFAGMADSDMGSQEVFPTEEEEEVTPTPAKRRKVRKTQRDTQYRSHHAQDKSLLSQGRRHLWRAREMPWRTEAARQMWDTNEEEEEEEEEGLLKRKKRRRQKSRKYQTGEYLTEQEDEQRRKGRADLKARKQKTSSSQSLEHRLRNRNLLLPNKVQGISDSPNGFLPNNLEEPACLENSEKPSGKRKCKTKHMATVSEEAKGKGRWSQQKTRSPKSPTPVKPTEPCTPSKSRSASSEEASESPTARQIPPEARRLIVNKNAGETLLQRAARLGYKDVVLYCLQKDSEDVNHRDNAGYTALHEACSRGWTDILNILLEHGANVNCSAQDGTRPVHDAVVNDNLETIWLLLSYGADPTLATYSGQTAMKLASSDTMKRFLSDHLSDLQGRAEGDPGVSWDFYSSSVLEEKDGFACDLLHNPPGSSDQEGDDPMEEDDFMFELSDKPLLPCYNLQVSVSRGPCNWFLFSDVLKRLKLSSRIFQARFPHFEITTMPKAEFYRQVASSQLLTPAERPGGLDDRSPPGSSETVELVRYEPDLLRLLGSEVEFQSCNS
UniProt Q9NP55: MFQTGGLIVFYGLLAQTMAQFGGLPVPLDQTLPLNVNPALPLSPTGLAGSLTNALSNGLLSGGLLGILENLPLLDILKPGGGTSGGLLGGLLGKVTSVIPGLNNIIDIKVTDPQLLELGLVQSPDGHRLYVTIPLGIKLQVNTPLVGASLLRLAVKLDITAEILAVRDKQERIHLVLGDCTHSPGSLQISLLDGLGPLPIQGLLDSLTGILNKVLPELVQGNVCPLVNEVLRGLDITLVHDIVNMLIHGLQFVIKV
UniProt Q96RK4: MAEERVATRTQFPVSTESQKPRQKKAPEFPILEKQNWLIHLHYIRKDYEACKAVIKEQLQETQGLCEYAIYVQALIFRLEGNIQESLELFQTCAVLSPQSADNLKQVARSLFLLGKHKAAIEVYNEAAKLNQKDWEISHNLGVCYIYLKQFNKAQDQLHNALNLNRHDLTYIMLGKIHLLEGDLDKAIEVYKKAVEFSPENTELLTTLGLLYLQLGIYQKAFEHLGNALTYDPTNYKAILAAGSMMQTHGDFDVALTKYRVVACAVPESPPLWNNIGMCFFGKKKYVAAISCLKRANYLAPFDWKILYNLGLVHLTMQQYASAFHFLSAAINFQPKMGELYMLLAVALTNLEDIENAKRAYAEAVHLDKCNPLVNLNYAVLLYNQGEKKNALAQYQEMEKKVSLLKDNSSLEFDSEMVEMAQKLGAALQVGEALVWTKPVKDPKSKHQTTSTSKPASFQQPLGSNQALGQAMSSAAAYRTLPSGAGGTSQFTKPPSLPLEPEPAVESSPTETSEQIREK
UniProt Q8TDL5: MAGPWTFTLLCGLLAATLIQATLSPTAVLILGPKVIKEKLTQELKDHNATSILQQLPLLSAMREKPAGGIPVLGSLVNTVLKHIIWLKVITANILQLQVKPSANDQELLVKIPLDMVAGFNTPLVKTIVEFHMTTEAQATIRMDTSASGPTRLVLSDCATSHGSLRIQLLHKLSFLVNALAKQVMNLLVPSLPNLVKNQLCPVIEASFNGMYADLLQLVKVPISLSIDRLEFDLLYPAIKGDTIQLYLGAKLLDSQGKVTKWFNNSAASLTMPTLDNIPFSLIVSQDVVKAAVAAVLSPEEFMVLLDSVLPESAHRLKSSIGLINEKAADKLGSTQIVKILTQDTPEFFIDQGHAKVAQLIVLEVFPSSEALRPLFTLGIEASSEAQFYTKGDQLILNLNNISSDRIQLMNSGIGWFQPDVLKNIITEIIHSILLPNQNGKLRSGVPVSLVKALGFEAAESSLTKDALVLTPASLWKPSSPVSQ

The list shows a part of the results.

Compound in the first test: CS(=O)(=O)N1CCN(Cc2cc3nc(-c4cccc5[nH]ncc45)nc(N4CCOCC4)c3s2)CC1 [pictilisib]
Briefly: log2 fold change, soluble protein after heating vs DMSO (PISA); higher = thermal stabilisation; K562 lysate, 10 uM; active = over 0.2 and 3.5 SD of the protein, either way, in both replicates (recomputed). The essentials: (§1)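 Log-two fold change in thermal stability relative to solvent controls is reported from duplicates. For each sample, crude K562 extract from dounce-homogenised pellets in PBS pH 7.4 with 1 mM MgCl2, at 1 mg/mL protein, was treated with 10 μM compound for 30 min. Aliquots heated for 3 min across 48°C-58°C were pooled, brought to 0.5% NP-40 at 4°C and cleared at 21,000xg for 90 min. The supernatant was quantified by TMTpro 16plex LC-MS/MS with channel sums equalised.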
Turning to BPNT1 (UniProt A6NF51), the log2 fold change is inactive: -0.072.

With BTBD1 (UniProt Q9H0C5), the log2 fold change is inactive: -0.007.

As to BTBD10 isoform 2 (UniProt Q9BSF8), the log2 fold change was inactive: -0.079.

BPIFA2 (UniProt Q96DR5): the log2 fold change is inactive: -0.329.

Consider BCL2 (UniProt P10415), for which the log2 fold change is inactive: -0.037.

For the target B4GAT1 (UniProt O43505), the log2 fold change was inactive: 0.018.

Compound in the next test: C[C@@H](Oc1cc(-c2cnn(C3CCNCC3)c2)cnc1N)c1c(Cl)ccc(F)c1Cl [crizotinib]
Described as above. The essentials:
as §1
In the case of BAIAP2 isoform 6 (UniProt Q9UQB8), the log2 fold change is inactive: -0.054.

In the case of B4GALNT4 (UniProt Q76KP1), the log2 fold change was inactive: -0.061.

Consider BTBD2 (UniProt Q9BX70), for which the log2 fold change is inactive: -0.031.

In the case of BEGAIN, A0A1B0GVM0, the log2 fold change was inactive: -0.081.

Consider BHLHE40 (UniProt O14503), for which the log2 fold change is inactive: -0.044.

For BTG1 (UniProt P62324), the log2 fold change was inactive: 0.067.

On to BTBD10 isoform 2 (UniProt Q9BSF8), for which the log2 fold change was inactive: -0.027.

In the case of BEX4 (UniProt Q9NWD9), the log2 fold change is inactive: 0.018.

In the case of B4GAT1 (UniProt O43505), the log2 fold change is inactive: -0.041.

For BBS7 (UniProt Q8IWZ6), the log2 fold change is inactive: -0.036.

Consider B4GALT7 (UniProt Q9UBV7), for which the log2 fold change is inactive: -0.024.

Regarding BNIP3L (UniProt O60238), the log2 fold change was inactive: -0.123.

As for BRWD1 (UniProt Q9NSI6), the log2 fold change was inactive: -0.013.

On to BBX (UniProt Q8WY36), for which the log2 fold change was inactive: 0.155.

Turning to BCORL1 isoform 3 (UniProt Q5H9F3), the log2 fold change is inactive: -0.162.

Consider BDP1 (UniProt A6H8Y1), for which the log2 fold change is inactive: 0.036.

Compound in a further test: C[C@H](C1=CC=C(C=C1)C(=O)NC2=C3C=CNC3=NC=C2)N
The description is as above. The method, boiled down: as §1
As for BAIAP2 isoform 6 (UniProt Q9UQB8), the log2 fold change is inactive: -0.041.

As for BTBD2 (UniProt Q9BX70), the log2 fold change is inactive: -0.23.

BPIFA1 (UniProt Q9NP55): the log2 fold change was inactive: 0.167.

BTBD1 (UniProt Q9H0C5): the log2 fold change was inactive: -0.074.

In the case of BRD9 (UniProt Q9H8M2), the log2 fold change is inactive: 0.119.

For the target BBS4 isoform 2 (UniProt Q96RK4), the log2 fold change is inactive: -0.228.

Consider BPIFB1 (UniProt Q8TDL5), for which the log2 fold change was inactive: 0.414.

For BPIFA2 (UniProt Q96DR5), the log2 fold change was inactive: 0.353.

As for BCAP31, A0A2R8Y5M6, the log2 fold change is inactive: 0.112.

As to BMT2 (UniProt Q1RMZ1), the log2 fold change was inactive: 0.116.

Turning to BBS7 (UniProt Q8IWZ6), the log2 fold change is inactive: 0.003.

On to B4GALT7 (UniProt Q9UBV7), for which the log2 fold change is inactive: 0.218.

Take B4GALT4 (UniProt O60513): the log2 fold change was inactive: -0.075.

Take BCORL1 isoform 3 (UniProt Q5H9F3): the log2 fold change was active: -0.577.

Compound in a further test: C[C@H](Nc1ncnc2nc[nH]c12)c1cc2cccc(Cl)c2c(=O)n1-c1ccccc1 [duvelisib]
The description is as above. The essentials:
as §1
On to BPIFA1 (UniProt Q9NP55), for which the log2 fold change is inactive: -0.06.

As to BPNT1 (UniProt A6NF51), the log2 fold change is inactive: -0.193.

With BBS4 isoform 2 (UniProt Q96RK4), the log2 fold change is inactive: 0.048.

On to BTBD10 isoform 2 (UniProt Q9BSF8), for which the log2 fold change was inactive: 0.133.

Take BEX4 (UniProt Q9NWD9): the log2 fold change is inactive: 0.034.

B4GAT1 (UniProt O43505): the log2 fold change was inactive: 0.171.

As for BBS7 (UniProt Q8IWZ6), the log2 fold change was inactive: 0.039.

Take BRWD1 (UniProt Q9NSI6): the log2 fold change is inactive: 0.033.

For B4GALT4 (UniProt O60513), the log2 fold change was inactive: -0.148.

For the target BBX (UniProt Q8WY36), the log2 fold change was inactive: -0.118.

With BCORL1 isoform 3 (UniProt Q5H9F3), the log2 fold change is inactive: 0.1.

Compound in another test: Cc1cc(Nc2cc(CN3CCOCC3)c3nc(C)c(Cc4ccc(Cl)cc4F)n3n2)n[nH]1 [gandotinib]
The test is described as above. The method, boiled down: as §1
With BAIAP2 isoform 6 (UniProt Q9UQB8), the log2 fold change was inactive: 0.031.

For the target BTBD2 (UniProt Q9BX70), the log2 fold change is inactive: 0.07.

As for BPIFA1 (UniProt Q9NP55), the log2 fold change was inactive: 0.011.

Regarding BTBD1 (UniProt Q9H0C5), the log2 fold change is inactive: 0.035.

BRD9 (UniProt Q9H8M2): the log2 fold change is inactive: -0.099.

Turning to BBS4 isoform 2 (UniProt Q96RK4), the log2 fold change is inactive: -0.046.

Consider BPIFB1 (UniProt Q8TDL5), for which the log2 fold change is inactive: 0.352.

Turning to BPIFA2 (UniProt Q96DR5), the log2 fold change was inactive: -0.071.

On to BCAP31, A0A2R8Y5M6, for which the log2 fold change is inactive: 0.112.

Regarding BMT2 (UniProt Q1RMZ1), the log2 fold change is inactive: -0.124.

Take BBS7 (UniProt Q8IWZ6): the log2 fold change is inactive: 0.072.

B4GALT7 (UniProt Q9UBV7): the log2 fold change was inactive: -0.138.

Regarding B4GALT4 (UniProt O60513), the log2 fold change is inactive: 0.038.

For the target BCORL1 isoform 3 (UniProt Q5H9F3), the log2 fold change is inactive: 0.238.

Compound in another test: Cc1cc(Nc2cc(N3CCN(C)CC3)nc(Sc3ccc(NC(=O)C4CC4)cc3)n2)n[nH]1 [tozasertib]
Described as above. The method, boiled down: as §1
For the target BTBD2 (UniProt Q9BX70), the log2 fold change was inactive: 0.009.

As to BEGAIN, A0A1B0GVM0, the log2 fold change was inactive: -0.014.

Regarding BPIFA1 (UniProt Q9NP55), the log2 fold change was inactive: 0.284.

Regarding BAG6 (UniProt F6WML8), the log2 fold change was inactive: 0.012.

Consider BPNT1 (UniProt A6NF51), for which the log2 fold change was inactive: 0.03.

BTBD1 (UniProt Q9H0C5): the log2 fold change is inactive: -0.057.

Take BRF2 (UniProt Q9HAW0): the log2 fold change is inactive: 0.07.

Consider BRD9 (UniProt Q9H8M2), for which the log2 fold change is inactive: -0.144.

Regarding BPIFB1 (UniProt Q8TDL5), the log2 fold change is inactive: 0.407.

In the case of BPIFA2 (UniProt Q96DR5), the log2 fold change is inactive: 1.59.

As for BCAP31, A0A2R8Y5M6, the log2 fold change is inactive: 0.199.

Take BTG3 isoform 2 (UniProt Q14201): the log2 fold change is inactive: 0.062.

On to BBS7 (UniProt Q8IWZ6), for which the log2 fold change is inactive: 0.021.

As to B4GALT7 (UniProt Q9UBV7), the log2 fold change is inactive: -0.044.

As for BNIP3L (UniProt O60238), the log2 fold change was inactive: -0.053.

Regarding BANP isoform 7 (UniProt Q8N9N5), the log2 fold change is inactive: -0.035.

Consider BICRAL (UniProt Q6AI39), for which the log2 fold change was inactive: 0.056.

As to BBX (UniProt Q8WY36), the log2 fold change was inactive: -0.034.

With BCORL1 isoform 3 (UniProt Q5H9F3), the log2 fold change was inactive: 0.049.

For the target BDP1 (UniProt A6H8Y1), the log2 fold change was inactive: 0.009.

On to BRAF, A0A2R8Y8E0, for which the log2 fold change was inactive: 0.035.
